Publication doi:10.1101/2020.07.04.184861
These are yes or no findings as the source states them, for the method shown. Binding seen in cells or lysates may run through a third protein. These calls come from enrichment with a bait or labelling near it, and not all partners need be listed. For some of these results: A no says only that the protein was not detected with the bait. For some of these results: Tags and fused reporters may be left off the sequences shown. One block for each molecule: values may come before it.

Protein sequences, listed by entry. Tags and fused reporters are not part of them.
UniProt Q9H814: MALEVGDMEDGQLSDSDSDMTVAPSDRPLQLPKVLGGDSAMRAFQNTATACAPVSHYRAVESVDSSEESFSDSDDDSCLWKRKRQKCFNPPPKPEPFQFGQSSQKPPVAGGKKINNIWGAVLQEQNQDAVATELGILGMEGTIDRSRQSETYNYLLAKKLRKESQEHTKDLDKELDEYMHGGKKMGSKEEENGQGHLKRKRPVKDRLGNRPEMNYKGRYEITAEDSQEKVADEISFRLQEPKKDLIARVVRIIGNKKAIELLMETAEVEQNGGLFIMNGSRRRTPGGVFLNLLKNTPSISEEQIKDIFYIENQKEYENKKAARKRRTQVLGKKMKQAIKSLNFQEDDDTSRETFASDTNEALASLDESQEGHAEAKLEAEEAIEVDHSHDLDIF
UniProt Q6NZY4: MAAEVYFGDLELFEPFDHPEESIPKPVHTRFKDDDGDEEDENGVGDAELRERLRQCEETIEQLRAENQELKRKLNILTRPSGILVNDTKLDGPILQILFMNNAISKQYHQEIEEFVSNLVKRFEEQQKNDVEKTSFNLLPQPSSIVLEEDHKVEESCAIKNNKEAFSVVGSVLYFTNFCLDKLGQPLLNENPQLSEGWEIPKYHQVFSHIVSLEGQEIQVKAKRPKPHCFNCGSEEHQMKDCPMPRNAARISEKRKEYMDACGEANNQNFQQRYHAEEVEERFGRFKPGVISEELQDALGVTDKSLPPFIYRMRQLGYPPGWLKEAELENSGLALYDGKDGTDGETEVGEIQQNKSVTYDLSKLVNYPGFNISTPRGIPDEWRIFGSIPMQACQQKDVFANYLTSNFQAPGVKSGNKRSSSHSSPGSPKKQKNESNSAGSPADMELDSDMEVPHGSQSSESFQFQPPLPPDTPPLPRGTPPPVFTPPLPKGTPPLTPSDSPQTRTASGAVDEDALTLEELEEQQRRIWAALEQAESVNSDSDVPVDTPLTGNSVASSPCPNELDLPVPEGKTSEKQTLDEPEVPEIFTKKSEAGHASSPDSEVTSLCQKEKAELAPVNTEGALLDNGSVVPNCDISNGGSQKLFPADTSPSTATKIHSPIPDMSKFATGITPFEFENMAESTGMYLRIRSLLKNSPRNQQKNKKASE

How the values were obtained:
Assay in all cases: affinity purification with mass spectrometry
[1] = target: T1, LAP-tagged NCBP2 (Nuclear Cap Binding Protein 2) (UniProt P52298)
T1 sequence: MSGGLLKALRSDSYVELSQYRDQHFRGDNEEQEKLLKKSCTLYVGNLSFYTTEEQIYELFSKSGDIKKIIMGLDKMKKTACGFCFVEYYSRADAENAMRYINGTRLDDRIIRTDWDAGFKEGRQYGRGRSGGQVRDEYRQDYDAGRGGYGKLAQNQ

[2] = target: T2, LAP-tagged NCBP3 (C17orf85) (UniProt Q53F19)
T2 sequence: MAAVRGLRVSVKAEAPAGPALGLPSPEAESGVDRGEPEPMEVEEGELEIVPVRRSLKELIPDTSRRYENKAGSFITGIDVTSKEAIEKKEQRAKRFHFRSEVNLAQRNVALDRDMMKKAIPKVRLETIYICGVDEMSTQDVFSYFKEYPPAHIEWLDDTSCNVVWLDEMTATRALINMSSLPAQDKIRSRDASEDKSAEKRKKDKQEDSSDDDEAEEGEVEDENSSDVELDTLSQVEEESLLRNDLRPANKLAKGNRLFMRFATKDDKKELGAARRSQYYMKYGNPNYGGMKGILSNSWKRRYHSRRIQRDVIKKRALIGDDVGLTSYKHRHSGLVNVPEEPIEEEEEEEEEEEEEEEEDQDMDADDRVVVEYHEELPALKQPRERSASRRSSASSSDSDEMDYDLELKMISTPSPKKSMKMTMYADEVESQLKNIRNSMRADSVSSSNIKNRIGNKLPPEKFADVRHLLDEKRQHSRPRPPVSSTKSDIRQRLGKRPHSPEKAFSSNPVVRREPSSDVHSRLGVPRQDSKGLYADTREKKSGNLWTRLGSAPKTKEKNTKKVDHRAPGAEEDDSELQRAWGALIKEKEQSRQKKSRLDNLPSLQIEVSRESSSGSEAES

[3] = target: LAP-tagged NCBP1 (Nuclear Cap Binding Protein 1) (UniProt Q09161)
[4] = target: T3, LAP-tagged NCBP1 (Nuclear Cap Binding Protein 1), Q09161; settings: remark: other sources report otherwise
T3 chain: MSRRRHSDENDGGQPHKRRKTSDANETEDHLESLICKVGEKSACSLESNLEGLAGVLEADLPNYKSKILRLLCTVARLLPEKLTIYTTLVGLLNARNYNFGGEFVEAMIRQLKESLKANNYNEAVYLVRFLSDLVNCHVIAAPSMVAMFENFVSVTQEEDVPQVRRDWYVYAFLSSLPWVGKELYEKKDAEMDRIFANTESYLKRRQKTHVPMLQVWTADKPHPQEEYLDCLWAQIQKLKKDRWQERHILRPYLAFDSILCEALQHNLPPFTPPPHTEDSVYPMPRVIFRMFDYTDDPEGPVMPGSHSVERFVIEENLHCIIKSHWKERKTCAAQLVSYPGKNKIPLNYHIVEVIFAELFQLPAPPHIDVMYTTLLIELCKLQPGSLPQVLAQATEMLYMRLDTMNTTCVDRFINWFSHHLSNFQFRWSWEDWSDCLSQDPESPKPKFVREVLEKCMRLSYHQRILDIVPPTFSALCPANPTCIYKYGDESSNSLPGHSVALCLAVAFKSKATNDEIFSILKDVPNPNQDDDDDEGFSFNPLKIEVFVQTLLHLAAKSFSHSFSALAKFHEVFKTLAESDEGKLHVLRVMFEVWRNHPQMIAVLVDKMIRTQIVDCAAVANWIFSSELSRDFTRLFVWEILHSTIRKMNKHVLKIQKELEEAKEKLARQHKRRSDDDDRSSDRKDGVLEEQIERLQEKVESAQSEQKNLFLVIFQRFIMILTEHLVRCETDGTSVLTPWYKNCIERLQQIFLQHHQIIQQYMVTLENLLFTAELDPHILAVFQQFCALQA

[5] = target: T4, LAP-tagged NCBP2 (Nuclear Cap Binding Protein 2), P52298; settings: remark: other sources report otherwise
T4 chain: T1 sequence

Molecule: Nuclear Cap Binding Protein 1 (NCBP1), endogenous (from UniProt Q09161 1-790)
binding [1]: binds

B1: RNPS1, endogenous (protein, UniProt Q15287 1-305)
chain: MDLSGVKKKSLLGVKENNKKSSTRAPSPTKRKDRSDEKSKDRSKDKGATKESSEKDRGRDKTRKRRSASSGSSSTRSRSSSTSSSGSSTSTGSSSGSSSSSASSRSGSSSTSRSSSSSSSSGSPSPSRRRHDNRRRSRSKSKPPKRDEKERKRRSPSPKPTKVHIGRLTRNVTKDHIMEIFSTYGKIKMIDMPVERMHPHLSKGYAYVEFENPDEAEKALKHMDGGQIDGQEITATAVLAPWPRPPPRRFSPPRRMLPPPPMWRRSPPRMRRRSRSPRRRSPVRRRSRSPGRRRHRSRSSSNSSR
binding [2]: binds

B3: ZC3H18, endogenous, Q86VM9 1-953 (protein)
chain: MDVAESPERDPHSPEDEEQPQGLSDDDILRDSGSDQDLDGAGVRASDLEDEESAARGPSQEEEDNHSDEEDRASEPKSQDQDSEVNELSRGPTSSPCEEEGDEGEEDRTSDLRDEASSVTRELDEHELDYDEEVPEEPAPAVQEDEAEKAGAEDDEEKGEGTPREEGKAGVQSVGEKESLEAAKEKKKEDDDGEIDDGEIDDDDLEEGEVKDPSDRKVRPRPTCRFFMKGNCTWGMNCRFIHPGVNDKGNYSLITKADPFPPNGAPPLGPHPLMPANPWGGPVVDEILPPPPPEPPTESAWERGLRHAKEVLKKATIRKEQEPDFEEKRFTVTIGEDEREFDKENEVFRDWNSRIPRDVRDTVLEPYADPYYDYEIERFWRGGQYENFRVQYTETEPYHNYRERERERERENRQRERERERERDRERERRQRERERERERERDKERQRRKEEWERERAKRDEKDRQHRDRDREKEREKEKGKPKPRSPQPPSRQAEPPKKEAATTGPQVKRADEWKDPWRRSKSPKKKLGVSVSPSRARRRRKTSASSASASNSSRSSSRSSSYSGSGSSRSRSRSSSYSSYSSRSSRHSSFSGSRSRSRSFSSSPSPSPTPSPHRPSIRTKGEPAPPPGKAGEKSVKKPAPPPAPPQATKTTAPVPEPTKPGDPREARRKERPARTPPRRRTLSGSGSGSGSSYSGSSSRSRSLSVSSVSSVSSATSSSSSAHSVDSEDMYADLASPVSSASSRSPAPAQTRKEKGKSKKEDGVKEEKRKRDSSTQPPKSAKPPAGGKSSQQPSTPQQAPPGQPQQGTFVAHKEIKLTLLNKAADKGSRKRYEPSDKDRQSPPPAKRPNTSPDRGSRDRKSGGRLGSPKPERQRGQNSKAPAAPADRKRQLSPQSKSSSKVTSVPGKASDPGAASTKSGKASTLSRREELLKQLKAVEDAIARKRAKIPGKA
binding [4]: binds | binding [5]: binds

B4: ZC3H18, endogenous (protein, UniProt Q86VM9 1-953)
chain: B3 chain
binding [2]: no binding

Second part, the molecule after the results:

binding [2]: no binding | binding [3]: binds | binding [1]: binds
Molecule: PHAX, endogenous (from UniProt Q9H814 1-394)

binding [2]: no binding | binding [3]: binds | binding [1]: binds
Molecule: ZCCHC8, endogenous (from UniProt Q6NZY4 1-707)

binding [3]: binds | binding [1]: binds
B2: ARS2, endogenous (protein, UniProt Q9BXP5 1-876)
chain: MGDSDDEYDRRRRDKFRRERSDYDRSRERDERRRGDDWNDREWDRGRERRSRGEYRDYDRNRRERFSPPRHELSPPQKRMRRDWDEHSSDPYHSGYEMPYAGGGGGPTYGPPQPWGHPDVHIMQHHVLPIQARLGSIAEIDLGVPPPVMKTFKEFLLSLDDSVDETEAVKRYNDYKLDFRRQQMQDFFLAHKDEEWFRSKYHPDEVGKRRQEARGALQNRLRVFLSLMETGWFDNLLLDIDKADAIVKMLDAAVIKMEGGTENDLRILEQEEEEEQAGKPGEPSKKEEGRAGAGLGDGERKTNDKDEKKEDGKQAENDSSNDDKTKKSEGDGDKEEKKEDSEKEAKKSSKKRNRKHSGDDSFDEGSVSESESESESGQAEEEKEEAEEALKEKEKPKEEEWEKPKDAAGLECKPRPLHKTCSLFMRNIAPNISRAEIISLCKRYPGFMRVALSEPQPERRFFRRGWVTFDRSVNIKEICWNLQNIRLRECELSPGVNRDLTRRVRNINGITQHKQIVRNDIKLAAKLIHTLDDRTQLWASEPGTPPLPTSLPSQNPILKNITDYLIEEVSAEEEELLGSSGGAPPEEPPKEGNPAEINVERDEKLIKVLDKLLLYLRIVHSLDYYNTCEYPNEDEMPNRCGIIHVRGPMPPNRISHGEVLEWQKTFEEKLTPLLSVRESLSEEEAQKMGRKDPEQEVEKFVTSNTQELGKDKWLCPLSGKKFKGPEFVRKHIFNKHAEKIEEVKKEVAFFNNFLTDAKRPALPEIKPAQPPGPAQILPPGLTPGLPYPHQTPQGLMPYGQPRPPILGYGAGAVRPAVPTGGPPYPHAPYGAGRGNYDAFRGQGGYPGKPRNRMVRGDPRAIVEYRDLDAPDDVDFF
